For the experiment, the target named is ClpP fused to an N-terminal fragment of GFP (split GFP) (S. mutans) (UniProt Q8DST7). In words: split reporter.

The chains behind the UniProt entries cited, without tags or fusion partners.
UniProt Q8DST7: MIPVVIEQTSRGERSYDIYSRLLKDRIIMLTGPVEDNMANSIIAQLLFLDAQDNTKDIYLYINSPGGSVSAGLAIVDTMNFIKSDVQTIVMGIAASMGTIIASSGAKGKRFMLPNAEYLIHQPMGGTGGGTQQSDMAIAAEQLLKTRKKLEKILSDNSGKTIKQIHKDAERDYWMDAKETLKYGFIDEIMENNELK
UniProt Q8DUI0: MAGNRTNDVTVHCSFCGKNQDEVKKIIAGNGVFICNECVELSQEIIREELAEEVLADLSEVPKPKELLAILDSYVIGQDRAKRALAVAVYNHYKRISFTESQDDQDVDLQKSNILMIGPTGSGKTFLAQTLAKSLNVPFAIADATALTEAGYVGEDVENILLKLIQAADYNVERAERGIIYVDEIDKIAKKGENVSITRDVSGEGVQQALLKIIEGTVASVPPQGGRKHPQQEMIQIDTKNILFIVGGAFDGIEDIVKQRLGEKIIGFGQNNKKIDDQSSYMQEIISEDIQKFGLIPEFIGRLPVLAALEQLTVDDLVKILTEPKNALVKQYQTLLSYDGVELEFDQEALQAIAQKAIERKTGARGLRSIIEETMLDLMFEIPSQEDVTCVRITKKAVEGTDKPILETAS

The values that follow come from article doi:10.1101/2025.02.28.640611.

No constants are given. Whether binding was seen depends on the method and setting. In cells and extracts the contact can be indirect. Some entries that bind do so weakly or less than the wild type.

In the case of “ClpX fused to a C-terminal fragment of GFP (split GFP) (from UniProt Q8DUI0 1-410) (enzyme)”, the binding result is given as “binds”.
